From PMC8001828 come the findings set out here.

Chains of the proteins cited; added tags and fusions are not shown. Lines headed by an entry give the natural chain unless they say otherwise; changes in a name come on top. A line that says so, or that is headed by a name, gives the form on record, which may keep a tag or linker.
UniProt P12956: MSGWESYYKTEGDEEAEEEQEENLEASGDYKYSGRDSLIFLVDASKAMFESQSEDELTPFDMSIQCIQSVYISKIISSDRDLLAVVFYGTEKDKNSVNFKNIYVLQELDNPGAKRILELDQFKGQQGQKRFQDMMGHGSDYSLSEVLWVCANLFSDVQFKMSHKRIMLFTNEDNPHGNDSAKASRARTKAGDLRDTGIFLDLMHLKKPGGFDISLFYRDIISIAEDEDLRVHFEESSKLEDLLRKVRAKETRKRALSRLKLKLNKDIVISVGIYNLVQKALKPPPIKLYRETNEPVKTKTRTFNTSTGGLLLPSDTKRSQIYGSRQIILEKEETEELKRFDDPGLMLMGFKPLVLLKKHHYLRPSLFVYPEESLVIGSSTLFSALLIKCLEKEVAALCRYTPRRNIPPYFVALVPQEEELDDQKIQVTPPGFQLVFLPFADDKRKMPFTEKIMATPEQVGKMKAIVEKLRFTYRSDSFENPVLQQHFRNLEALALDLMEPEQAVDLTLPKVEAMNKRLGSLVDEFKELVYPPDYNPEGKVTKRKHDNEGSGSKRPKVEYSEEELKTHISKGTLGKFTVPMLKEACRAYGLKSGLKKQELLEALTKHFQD
Ku70 vWA-NLS-BioID2-HA (P12956, form named): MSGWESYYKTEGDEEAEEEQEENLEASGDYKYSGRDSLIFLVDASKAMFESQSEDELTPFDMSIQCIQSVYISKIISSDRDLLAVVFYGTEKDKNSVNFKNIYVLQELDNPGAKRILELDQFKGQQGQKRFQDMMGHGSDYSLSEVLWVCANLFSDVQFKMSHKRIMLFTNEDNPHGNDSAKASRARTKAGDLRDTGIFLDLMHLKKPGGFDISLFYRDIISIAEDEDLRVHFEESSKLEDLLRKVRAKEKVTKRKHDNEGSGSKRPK
UniProt O15541: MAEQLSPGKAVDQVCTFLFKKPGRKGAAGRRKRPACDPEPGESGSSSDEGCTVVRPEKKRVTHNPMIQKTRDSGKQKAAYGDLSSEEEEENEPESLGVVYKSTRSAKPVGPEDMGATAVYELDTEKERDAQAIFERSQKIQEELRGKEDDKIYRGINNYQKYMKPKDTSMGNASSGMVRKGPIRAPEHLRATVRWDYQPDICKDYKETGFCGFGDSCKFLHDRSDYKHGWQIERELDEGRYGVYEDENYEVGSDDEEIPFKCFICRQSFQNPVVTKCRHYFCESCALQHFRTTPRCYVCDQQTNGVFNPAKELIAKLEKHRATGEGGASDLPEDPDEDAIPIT

The target of experiment [1] is Ku70 (endogenous) (human (endogenous in HeLa)) (UniProt P12956). The experiment is described as follows: proximity ligation; Duolink PLA in fixed HeLa cells on endogenous proteins, mouse anti-Ku70 with rabbit anti-Ku80, anti-RNF113A or anti-Spindly.
The target of experiment [2] is Ku70 vWA-NLS-BioID2-HA (human) (UniProt P12956). The experiment is described as follows: proximity ligation; Duolink PLA in fixed stable HEK293 lines, mouse anti-HA with rabbit anti-Ku80, anti-RNF113A or anti-Spindly.

Results are given in words; binding and its absence hold for the method and conditions named. Binding seen in cells or lysates may run through a third protein. Some results given as binding are weak or reduced against the parent protein; the word gives no strength.

Turning to “RING finger protein 113A (endogenous, HeLa) (from UniProt O15541 1-343)”, the binding result in experiment [1] is on record as “binds”.
In the case of “RING finger protein 113A (from UniProt O15541 1-343)”, the binding entry in experiment [2] was “binds”.

B1: Protein Spindly (endogenous, HeLa) (protein, UniProt Q96EA4 1-605)
chain: MEADIITNLRCRLKEAEEERLKAAQYGLQLVESQNELQNQLDKCRNEMMTMTESYEQEKYTLQREVELKSRMLESLSCECEAIKQQQKMHLEKLEEQLSRSHGQEVNELKTKIEKLKVELDEARLSEKQLKHQVDHQKELLSCKSEELRVMSERVQESMSSEMLALQIELTEMESMKTTLKEEVNELQYRQEQLELLITNLMRQVDRLKEEKEEREKEAVSYYNALEKARVANQDLQVQLDQALQQALDPNSKGNSLFAEVEDRRAAMERQLISMKVKYQSLKKQNVFNREQMQRMKLQIATLLQMKGSQTEFEQQERLLAMLEQKNGEIKHLLGEIRNLEKFKNLYDSMESKPSVDSGTLEDNTYYTDLLQMKLDNLNKEIESTKGELSIQRMKALFESQRALDIERKLFANERCLQLSESENMKLRAKLDELKLKYEPEETVEVPVLKKRREVLPVDITTAKDACVNNSALGGEVYRLPPQKEETQSCPNSLEDNNLQLEKSVSIYTPVVSLSPHKNLPVDMQLKKEKKCVKLIGVPADAEALSERSGNTPNSPRLAAESKLQTEVKEGKETSSKLEKETCKKLHPILYVSSKSTPETQCPQQ
As for B1, in experiment [1], the binding result was “binds”.
